# Test results as given in PubChem BioAssay AID445 (National Center for Advancing Translational Sciences (NCATS), 2006).
# This is one part of the list. These are further read-outs of the screen, such as a control signal, another cell line or another target. No call is given for them. The list favours compounds with an active or inconclusive main result. Words in brackets tell the shape of the fitted curve; partial curves, single points and poor fits give uncertain potencies.
# Test: IkB Signaling
# Details: ABC-DLBCL IkBa-CBG/CBR dual luciferase ratio (green luciferase fused to IkBa over red control in OCI-Ly3 lymphoma cells), 4 h
# In short: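 Curves were fitted separately to fusion (green), unfused (red) and ratio luminescence, then classed by r2, magnitude and activity. Cells: OCI-Ly3, 4 h compound plus doxycycline at 37C; 10 uM MG-132 defined full response.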
# [1] = measured here: control luc red channel unless noted
# [2] = measured here: IkB-luc green channel
# [3] = measured here: control luc red channel
smiles,measurement,setting,value
O=C(c1cc(-c2ccc(Cl)cc2)on1)N(Cc1ccc(F)cc1)Cc1ccco1,AC50,[1],"0.251 µM [falling, full curve, poor fit]"
CCn1c(COc2cccc(OC)c2)nnc1SCC(=O)Nc1cccc(OC)c1,AC50,[1],"12.6 µM [falling, partial curve]"
COc1ccccc1-c1noc(CCC(=O)Nc2cccc(C)c2)n1,AC50,[1],"3.98 µM [falling, partial curve]"
CCc1cccc(NC(=O)c2sc3nc[nH]c(=O)c3c2C)c1,AC50,[1],"0.1 µM [falling, full curve, poor fit]"
O=C1CN(C(=O)c2ccc(S(=O)(=O)N3CCCC3)cc2)C(c2ccc(F)cc2)c2cc(F)ccc2N1 (stereo not drawn),AC50,[1],"0.158 µM [falling, full curve]"
CCN(c1ccccc1)S(=O)(=O)c1nnc(NC(=O)C(C)Oc2ccccc2)s1 (stereo not drawn),AC50,[1],"2.51 µM [falling, full curve]"
COc1ccc(C2c3c(-c4cc(Cl)c(C)cc4O)n[nH]c3C(=O)N2Cc2cccnc2)cc1OC (stereo not drawn),AC50,[1],"25.1 µM [falling, partial curve]"
COc1cc(C2C(C(=O)Nc3ccc(C)cc3C)=C(C)Nc3nc(SCc4ccccc4)nn32)cc(OC)c1OC (stereo not drawn),AC50,[1],"0.02 µM [rising, partial curve, poor fit]"
COc1cc(C(=O)Nc2ccc(-n3cnnn3)c(C)c2)cc(OC)c1OC,AC50,[1],"39.8 µM [falling, partial curve]"
CCOC(=O)N1CCN(C(=O)c2ccc3c(=O)n(Cc4ccc(OC)cc4)c(=S)[nH]c3c2)CC1,AC50,[1],"25.1 µM [falling, partial curve]"
COc1cc(C(=O)Nc2nccs2)c(Br)c(OC)c1OC,AC50,[1],"5.01 µM [falling, partial curve]"
CCOC(=O)c1c(NC(=O)COc2cccc(C)c2C)sc2c1CCCCC2,AC50,[1],"39.8 µM [falling, single point]"
Cc1ccc(Cn2ccn(Cc3cccc(C(F)(F)F)c3)c(=O)c2=O)cc1,AC50,[1],"2.51 µM [falling, partial curve]"
COc1cccc(NC(=O)CSc2nc3c([nH]c4ccccc43)c(=O)n2-c2cccc(Cl)c2)c1,AC50,[1],"0.794 µM [falling, full curve]"
CCOC(=O)c1ccc(NC(=O)CSc2nc(C)c(Cc3ccccc3)c(=O)[nH]2)cc1,AC50,[1],"12.6 µM [falling, partial curve]"
Cc1ccc(-c2ccc(=O)n(CC(=O)Nc3ccc(C(C)C)cc3)n2)cc1,AC50,[1],"15.8 µM [falling, partial curve, poor fit]"
Cc1ccc(S(=O)(=O)Cn2nnnc2C(c2ccc(F)cc2)N2CCCCC2)cc1 (stereo not drawn),AC50,[1],"25.1 µM [falling, partial curve]"
COCCNC(=O)CCn1c(=O)c2cc(OC)c(OC)cc2n(CC(=O)Nc2ccccc2OC)c1=O,AC50,[1],"1.26 µM [falling, full curve]"
CC(=O)c1nnn(-c2nc(N)nc(N(c3ccccc3)c3ccccc3)n2)c1C,AC50,[1],"10 µM [falling, partial curve]"
CCc1cccc(CC)c1N(COC)C(=O)Cn1c(C)nc2ccccc21,AC50,[1],"25.1 µM [falling, partial curve]"
O=C(Nc1ccc(F)c(Cl)c1)C1Cc2ccccc2CN1S(=O)(=O)c1ccc(F)cc1 (stereo not drawn),AC50,[1],"1.26 µM [falling, full curve]"
Clc1ccc(N2CCN(Cc3nnc(-c4ccc5c(c4)OCO5)o3)CC2)cc1,AC50,[1],"12.6 µM [falling, partial curve]"
COc1ccc(NC(=O)C2=C(C)Nc3c(C(=O)Nc4ccc(C)cc4)cnn3C2c2cccc(Cl)c2)cc1 (stereo not drawn),AC50,[1],"31.6 µM [falling, single point]"
O=C(NC(C(=O)c1ccccc1)n1ccc(=O)[nH]c1=O)c1ccccc1 (stereo not drawn),AC50,[1],"15.8 µM [falling, partial curve]"
CCOC(=O)N1CCN(S(=O)(=O)c2ccc(C(=O)Nc3nc4ccccc4s3)cc2)CC1,AC50,[1],"0.0501 µM [falling, full curve]"
CC(=O)N1c2ccccc2CC1C(=O)N1CCN(c2cccc(C)c2C)CC1 (stereo not drawn),AC50,[1],"2 µM [falling, partial curve]"
Cc1oc2ccc(O)c(CN3CCOCC3)c2c1C(=O)Nc1ccc(C(C)C)cc1,AC50,[1],"15.8 µM [falling, partial curve]"
Cc1ccc2onc(CC(=O)N3CCN(c4ccccc4F)CC3)c2c1,AC50,[1],"3.98 µM [falling, partial curve]"
COc1ccc(-c2onc(C)c2C)cc1S(=O)(=O)Nc1ccc(OC(F)(F)F)cc1,AC50,[1],"31.6 µM [falling, single point]"
Cc1ccc(CSc2oc(-c3ccco3)nc2S(=O)(=O)c2ccc(Cl)cc2)cc1,AC50,[1],"25.1 µM [falling, single point]"
CCOC(=O)c1cccc(NC(=O)c2cc(S(=O)(=O)N3CCCC3)cn2C)c1,AC50,[1],"31.6 µM [falling, single point]"
COc1ccc(OC)c(-c2cc(C(=O)Nc3c(C)nn(Cc4ccc(Cl)cc4)c3C)no2)c1,AC50,[1],"10 µM [falling, partial curve]"
O=C(Nc1nc(-c2ccc(Cl)s2)cs1)c1cccs1,AC50,[1],"5.01 µM [falling, partial curve]"
CCCOC(=O)c1ccc(NC(=O)Cn2nnc3sc4c(c3c2=O)CCC(C(C)(C)C)C4)cc1 (stereo not drawn),AC50,[1],"39.8 µM [falling, single point]"
CC(=O)c1cc(-c2ccc(F)cc2)n(CC(=O)NC2CCCCCC2)c1C,AC50,[1],"0.631 µM [rising, full curve, poor fit]"
COc1ccc(NC(=O)c2ccco2)cc1NC(=O)C(C)Oc1ccc(Cl)cc1Cl (stereo not drawn),AC50,[1],"10 µM [falling, partial curve]"
Cc1nc(NC(=O)c2ccccc2)sc1-c1csc(NCc2ccco2)n1,AC50,[1],"10 µM [falling, partial curve]"
N#Cc1c(NC(=O)CSCC(=O)O)sc2c1CCCC2,AC50,[1],"31.6 µM [falling, single point]"
CCCCOc1ccc(C2=NC(c3ccccc3)=Nc3ccc(OC)cc3N2)cc1,AC50,[1],"39.8 µM [falling, single point]"
Clc1ccccc1Cc1cn2cc(-c3ccccc3)nc2s1,AC50,[1],"0.02 µM [falling, full curve]"
C=CCc1c(C)nc2nc(SCC(=O)Nc3ccc(OCC)cc3)nn2c1C,AC50,[1],"39.8 µM [falling, single point]"
CC(C)c1ccc(Nc2ncnc3c2c(-c2ccccc2)cn3-c2ccccc2)cc1,AC50,[1],"10 µM [falling, partial curve]"
COc1ccccc1CNC(=O)Cn1nc(C)c2nn(-c3ccc(Cl)cc3)c(C)c2c1=O,AC50,[1],"0.00631 µM [falling, full curve, poor fit]"
CC(C)COc1ccccc1C1CC(=O)Nc2cc3c(cc21)OCO3 (stereo not drawn),AC50,[1],"15.8 µM [falling, partial curve]"
Cc1ccc(NC(=O)c2ccc(F)c(S(=O)(=O)N3CCOCC3)c2)cc1F,AC50,[1],"15.8 µM [falling, partial curve]"
Clc1cccc(-n2ncc3c(N4CCN(Cc5ccccc5)CC4)ncnc32)c1,AC50,[1],"25.1 µM [falling, partial curve]"
COc1cccc(CNC(=O)Cn2ccc3cc(S(=O)(=O)N4CCC(C)CC4)ccc32)c1,AC50,[1],"3.16 µM [falling, full curve]"
Cc1cc(C)cc(OCC(=O)N(Cc2ccc(C)o2)C2CCS(=O)(=O)C2)c1 (stereo not drawn),AC50,[1],"39.8 µM [falling, single point]"
CCC(CC)C(=O)Nc1ccc2nc(SCC(=O)N3c4ccccc4CC3C)sc2c1 (stereo not drawn),AC50,[1],"3.16 µM [falling, full curve]"
CCOC(=O)c1c(C)sc(-c2c(-c3ccc(OC)c(F)c3)[nH]c3c2c(=O)[nH]c(=O)n3C)c1O,AC50,[1],"15.8 µM [falling, partial curve]"
COc1ccc(Cl)cc1NC(=O)c1c(NCc2ccc(C)o2)sc2c1CCCC2,AC50,[1],"39.8 µM [falling, single point]"
COc1cccc(N(CC(=O)N2CCC(C)CC2)S(=O)(=O)c2ccc(C)cc2)c1,AC50,[1],"31.6 µM [falling, single point]"
COCCNC(=O)c1cc2c(Cl)nc3ccc(C)cc3c2s1,AC50,[1],"3.16 µM [rising, partial curve]"
Cc1ccc(CN(Cc2ccco2)C(=O)c2oc3c(C)c(C)ccc3c2C)cc1,AC50,[1],"10 µM [falling, partial curve]"
CCC(C)NC(=O)CSc1nc2cc3c(cc2c(=O)n1CCCC(=O)NCc1ccc2c(c1)OCO2)OCO3 (stereo not drawn),AC50,[1],"7.94 µM [rising, full curve]"
CN(C)c1ccc(C(=C2C=CC(=[N+](C)C)C=C2)c2ccccc2)cc1,AC50,[2],"0.251 µM [falling, full curve, poor fit]"
same,AC50,[3],"0.0794 µM [falling, full curve]"
CCOC(=O)c1c(-c2ccccc2)oc2ccc(NS(=O)(=O)c3ccc(C(C)C)cc3)cc12,AC50,[1],"1 µM [falling, full curve]"
CCCCCn1c(=N)n(CC(O)COc2ccccc2OC)c2ccccc21 (stereo not drawn),AC50,[2],"10 µM [falling, partial curve]"
same,AC50,[3],"15.8 µM [falling, partial curve]"
COc1ccc(N2Cc3cccc(C(=O)NC(C)CCc4ccco4)c3C2=O)cc1 (stereo not drawn),AC50,[1],"25.1 µM [falling, partial curve]"
Cc1ccc(Cn2nc(C)c(NC(=O)c3cc(-c4ccco4)on3)c2C)cc1,AC50,[1],"15.8 µM [falling, partial curve]"
CCOc1ccc(CNC(=O)CCCn2c(=O)c3cccn3c3ccc(F)cc32)cc1,AC50,[1],"12.6 µM [falling, partial curve]"

# Reprinted at random: three records from the list
smiles,measurement,setting,value
CCc1cccc(CC)c1N(COC)C(=O)Cn1c(C)nc2ccccc21,AC50,[1],"25.1 µM [falling, partial curve]"
COc1ccc(OC)c(-c2cc(C(=O)Nc3c(C)nn(Cc4ccc(Cl)cc4)c3C)no2)c1,AC50,[1],"10 µM [falling, partial curve]"
N#Cc1c(NC(=O)CSCC(=O)O)sc2c1CCCC2,AC50,[1],"31.6 µM [falling, single point]"
